# Results as given in the supplement of paper PMC10338343.
# ± gives the standard deviation. Some of the results follow. Many entries were measured with a wide error.
# Test system: EfPiwi piRISC loaded with L1MC piRNA (26 nt)
# Test: pre-steady-state target cleavage rate (min^-1); guide: L1MC piRNA 5'p-UAACUAAAUACUAUGCAAGCUGUAGG; MIWI and MILI are mouse PIWI proteins and EfPiwi is from a freshwater sponge; tags in brackets are library labels; higher = faster piRNA-guided slicing of the target
# Outline: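 The method was Cleave-'n-Seq, in which uncleaved targets from a transcribed, DNA-blocked target RNA library were sequenced after exposure to active affinity-purified piRISC carrying one synthetic guide, with or without GTSF1 partner protein. Reactions contained 0.1 nM library, 1 nM piRISC and, where present, 500 nM GTSF1 in HEPES–potassium acetate buffer at 33 °C for 0–8 or 0–960 min. Reads were normalised to depth and to weakly complementary targets, three trials were pooled, and k3 was capped at 0.0001 min^-1. The pre-steady-state cleavage rate came from a burst-and-steady-state fit.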
# [1] = auxiliary factor: 500 nM Ephydatia muelleri Gtsf1
# [2] = auxiliary factor: none (no Gtsf1)
Sequence,pre-steady-state target cleavage rate [1],pre-steady-state target cleavage rate [2]
UCCUGGAUGAGCUUGCAGAGUAUUUAGUUA,0.00252 ± 0.0031,0.000293 ± 0.039
UCCUGGAUGAGCUUGCAUAGUAUCUAGUUA,0.00844 ± 0.003,0.00175 ± 0.0068
UCCUGGAUGAGCUUGCAAAGUAUAUAGUUA,0.000499 ± 0.011,< 0.0001
UCCUGGAUGAACUUGCAUAGUAUUUAGUUA,0.0179 ± 0.0064,0.00149 ± 0.0077
UCCUGGAACAGCUUGCAUAGUGAUUUAGUUA,0.0023 ± 0.0045,0.000645 ± 0.011
UCCUGGAUCAGCUUGCAUAGUAGUUUAGUUA,0.0107 ± 0.0033,0.011 ± 0.0045
UCCUGCUACAGCAUGCAAAGUAUUUAGUUA,0.00845 ± 0.0025,0.000154 ± 0.019
UCCUGCUACAGCUAGCAUAGUUUUUAGUUA,0.00472 ± 0.0016,0.000547 ± 0.0097
UCCUGGAUCAGCUUGCAUAGUACUUUAGUUA,0.00735 ± 0.0023,0.00468 ± 0.0038
UCCUGGAUGUCCUUGCAUAGUAUUUAGAUA,0.00461 ± 0.0029,0.000323 ± 0.012
UCCUGGAUGUCGAUGCAUUGUAAUUAGUUA,0.000671 ± 0.0062,0.000255 ± 0.024

# Part of the list above in a different format.
Sequence	pre-steady-state target cleavage rate [1]	pre-steady-state target cleavage rate [2]
UCCUGGAUGAGCUUGCAUAGUAUCUAGUUA	0.00844 ± 0.003	0.00175 ± 0.0068
UCCUGGAUGAGCUUGCAAAGUAUAUAGUUA	0.000499 ± 0.011	< 0.0001
UCCUGGAUGAACUUGCAUAGUAUUUAGUUA	0.0179 ± 0.0064	0.00149 ± 0.0077
